Measured values as given in paper PMC8834516.

T1: Transglutaminase-2 (mouse (endogenous in mouse brain)) (UniProt P21981)
T1 sequence: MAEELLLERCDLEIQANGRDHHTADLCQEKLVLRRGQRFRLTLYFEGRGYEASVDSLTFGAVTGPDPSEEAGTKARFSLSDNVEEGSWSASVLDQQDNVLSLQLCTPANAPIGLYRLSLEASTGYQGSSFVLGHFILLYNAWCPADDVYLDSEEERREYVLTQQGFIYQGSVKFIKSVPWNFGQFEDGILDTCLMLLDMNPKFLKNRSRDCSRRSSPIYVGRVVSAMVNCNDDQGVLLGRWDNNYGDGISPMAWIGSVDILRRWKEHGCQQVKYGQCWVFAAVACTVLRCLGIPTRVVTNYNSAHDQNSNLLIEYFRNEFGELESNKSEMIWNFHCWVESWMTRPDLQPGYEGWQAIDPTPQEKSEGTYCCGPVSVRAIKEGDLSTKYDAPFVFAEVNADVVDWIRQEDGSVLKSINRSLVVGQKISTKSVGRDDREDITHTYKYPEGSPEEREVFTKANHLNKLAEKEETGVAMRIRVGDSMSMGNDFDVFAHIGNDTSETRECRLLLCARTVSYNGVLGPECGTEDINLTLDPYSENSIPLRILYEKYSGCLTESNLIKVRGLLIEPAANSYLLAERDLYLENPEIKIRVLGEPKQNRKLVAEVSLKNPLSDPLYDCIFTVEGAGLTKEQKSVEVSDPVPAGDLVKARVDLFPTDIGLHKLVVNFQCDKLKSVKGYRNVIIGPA


Target: T1, Transglutaminase-2 (mouse (endogenous in mouse brain))
Test: affinity purification with mass spectrometry; TG2 immunoprecipitated from total brain homogenates of 18-month-old WT and APP23 mice with anti-TG2 antibody IA12 crosslinked to protein A/G magnetic beads, 22 h at 4 °C; IP lysis buffer 25 mM Tris pH 7.4, 150 mM NaCl, 1 mM EDTA, 1% NP40, 5% glycerol; on-bead trypsin digest, SWATH MS; TG2−/− cohorts as background, z-test p ≤ 0.05, n = 5 per cohort

| binding | Binder |
| --- | --- |
| binds | UDP-N-acetylglucosamine—peptide N-acetylglucosaminyltransferase 110 kDa subunit (protein, UniProt Q8CGY8 1-1046) MASSVGNVADSTEPTKRMLSFQGLAELAHREYQAGDFEAAERHCMQLWRQEPDNTGVLLLLSSIHFQCRRLDRSAHFSTLAIKQNPLLAEAYSNLGNVYKERGQLQEAIEHYRHALRLKPDFIDGYINLAAALVAAGDMEGAVQAYVSALQYNPDLYCVRSDLGNLLKALGRLEEAKACYLKAIETQPNFAVAWSNLGCVFNAQGEIWLAIHHFEKAVTLDPNFLDAYINLGNVLKEARIFDRAVAAYLRALSLSPNHAVVHGNLACVYYEQGLIDLAIDTYRRAIELQPHFPDAYCNLANALKEKGSVAEAEDCYNTALRLCPTHADSLNNLANIKREQGNIEEAVRLYRKALEVFPEFAAAHSNLASVLQQQGKLQEALMHYKEAIRISPTFADAYSNMGNTLKEMQDVQGALQCYTRAIQINPAFADAHSNLASIHKDSGNIPEAIASYRTALKLKPDFPDAYCNLAHCLQIVCDWTDYDERMKKLVSIVAEQLEKNRLPSVHPHHSMLYPLSHGFRKAIAERHGNLCLDKINVLHKPPYEHPKDLKLSDGRLRVGYVSSDFGNHPTSHLMQSIPGMHNPDKFEVFCYALSPDDGTNFRVKVMAEANHFIDLSQIPCNGKAADRIHQDGIHILVNMNGYTKGARNELFALRPAPIQAMWLGYPGTSGALFMDYIITDQETSPAEVAEQYSEKLAYMPHTFFIGDHANMFPHLKKKAVIDFKSNGHIYDNRIVLNGIDLKAFLDSLPDVKIVKMKCPDGGDNPDSSNTALNMPVIPMNTIAEAVIEMINRGQIQITINGFSISNGLATTQINNKAATGEEVPRTIIVTTRSQYGLPEDAIVYCNFNQLYKIDPSTLQMWANILKRVPNSVLWLLRFPAVGEPNIQQYAQNMGLPQNRIIFSPVAPKEEHVRRGQLADVCLDTPLCNGHTTGMDVLWAGTPMVTMPGETLASRVAASQLTCLGCLELIAKSRQEYEDIAVKLGTDLEYLKKIRGKVWKQRISSPLFNTKQYTMELERLYLQMWEHYAAGNKPDHMIKPVEVTESA |
| binds | Wiskott-Aldrich syndrome protein family member 1 (protein, UniProt Q8R5H6 1-559) MPLVKRNIDPRHLCHTALPRGIKNELECVTNISLANIIRQLSSLSKYAEDIFGELFNEAHSFSFRVNSLQERVDRLSVSVTQLDPKEEELSLQDITMRKAFRSSTIQDQQLFDRKTLPIPLQETYDVCEQPPPLNILTPYRDDGKEGLKFYTNPSYFFDLWKEKMLQDTEDKRKEKRKQKQKNLDRPHEPEKVPRAPHDRRREWQKLAQGPELAEDDADLLHKHIEVANGPASHYETRPQTYVDHMDGSYSLSALPFSQMSELLTRAEERVLVRPHEPPPPPPMHGAGDAKPTPTCISSATGLIENRPQSPAAGRTPVFVSPTPPPPPPPLPSALSTSSLRASMTSTPPPPVPPPPPPPATALQAPAVPPPPAPLQIAPGVLHPAPPPIAPPLVQPSPPVARAAPVCETVPVHPLPQGEVQGLPPPPPPPPLPPPGIRPSSPVAVAALAHPPSGLHPAPSTAPGPHAPLMPPSPPSQVLPASEPKRHPSTLPVISDARSVLLEAIRKGIQLRKVEEQREQEAKHERIENDVATILSRRIAVEYSDSEDDSEFDEVDWLE |

More lines, now with the values behind:

| Binder | binding |
| --- | --- |
| Glycine—tRNA ligase (protein, UniProt Q9CZD3 34-729) LSAPAQPAASRSSMDSAEELLAPLRLAVRQQGDFVRKLKEDKAPQVDVDRAVAELKARKRVLEAKELALQPKDDIVDRAKMEDTLKRRFFYDQAFAIYGGVSGLYDFGPVGCALKNNIIQAWRQHFIQEEQILEIDCTMLTPEPVLKTSGHVDKFADFMVKDVKNGECFRADHLLKAHLQKLMSDKKCSAEKKSEMESVLAQLDNYGQQELADLFVNYNVKSPTTGNDLSPPVPFNLMFQTFIGPGGNMPGYLRPETAQGIFLNFKRLLEFNQGKLPFAAAQIGNSFRNEISPRSGLIRVREFTMAEIEHFVDPTEKDHPKFQSVADLCLYLYSAKAQVTGQSARKMRLGDAVEQGVINNSVLGYFIGRIYLYLTKVGISPDKLRFRQHMENEMAHYACDCWDAESKTSYGWIEIVGCADRSCYDLSCHARATKVPLVAEKPLKEPKTVNVVQFEPNKGAVGKAYKKDAKLVLEYLSACDECYISEMELLLSEKGEFTIETEGKTFQLTKDMVSVKRFQKTLHVEEVVPSVIEPSFGLGRIMYTILEHTFHVREGDEQRTFFSFPAVVAPFKCSVLPLSQNQEFMPFVKELSEALTRNGVSHKVDDSSGSIGRRYARTDEIGVAFGITIDFDTVNKTPHTATLRDRDSMRQIRAEVSELPNVVRDLANGNITWADVEARYPLFEGQETGKKETVEE | binds |
| Ras-related protein Rab-21 (protein, UniProt P35282 1-222) MAAAGGGAAAAAGRAYSFKVVLLGEGCVGKTSLVLRYCENKFNDKHITTLQASFLTKKLNIGGKRVNLAIWDTAGQERFHALGPIYYRDSNGAILVYDVTDEDSFQKVKNWVKELRKMLGNEICLCIVGNKIDLEKERHVSIQEAESYAESVGAKHYHTSAKQNKGIEELFLDLCKRMIETAQVDERAKGNGSSQAGAARRGVQIIDDEPQAQSSGGCCSSG | binds |
| Active breakpoint cluster region-related protein (protein, UniProt Q5SSL4 1-859) MEPLSHRGLPRLSWIDTLYSNFSYGAEDYDAEGHEEQKGPPEGSETMPYIDESPTMSPQLSARSQGGGDSVSPTPPEGLAPGVEAGKGLEMRKLVLSGFLASEEIYINQLEALLLPMKPLKATATTSQPVLTIQQIETIFYKIQDIYEIHKEFYDNLCPKVQQWDSQVTMGHLFQKLASQLGVYKAFVDNYKVALETAEKCSQSNNQFQKISEELKVKGPKDSKDSHTSVTMEALLYKPIDRVTRSTLVLHDLLKHTPVDHPDYPLLQDALRISQNFLSSINEDIDPRRTAVTTPKGETRQLVKDGFLVEMSESSRKLRHVFLFTDVLLCAKLKKTSAGKHQQYDCKWYIPLADLVFPSPEESEASPQVHPFPDHELEDMKTKISALKSEIQKEKANKGQSRAIERLKKKMFENEFLLLLNSPTIPFRIHNRNGKSYLFLLSSDYERSEWREAIQKLQKKDLQAFVLSSVELQVLTGSCFKLRTVHNIPVTSNKDDDESPGLYGFLHVIVHSAKGFKQSANLYCTLEVDSFGYFVSKAKTRVFRDTTEPKWDEEFEIELEGSQSLRILCYEKCYDKTKVNKDNNEIVDKIMGKGQIQLDPQTVESKNWHTDVIEMNGIKVEFSMKFTSRDMSLKRTPSKKQTGVFGVKISVVTKRERSKVPYIVRQCIEEVEKRGIEEVGIYRISGVATDIQALKAVFDANNKDILLMLSDMDINAIAGTLKLYFRELPEPLLTDRLYPAFMEGIALSDPAAKENCMMHLLRSLPDPNLITFLFLLEHLKRVAEKEPINKMSLHNLATVFGPTLLRPSEVESKAHLTSAADIWSHDVMAQVQVLLYYLQHPPISFAELKRNTLYFSTDV | binds |
| Solute carrier family 12 member 5 (protein, UniProt Q91V14 1-1138) MSRRFTVTSLPPAASAASADPESRRHSVADPRRLPREDVKGDGNPKESSPFINSTDTEKGREYDGRNMALFEEEMDTSPMVSSLLSGLANYTNLPQGSREHEEAENNEGGKKKPVQAPRMGTFMGVYLPCLQNIFGVILFLRLTWVVGIAGIMESFCMVFICCSCTMLTAISMSAIATNGVVPAGGSYYMISRSLGPEFGGAVGLCFYLGTTFAGAMYILGTIEILLAYLFPAMAIFKAEDASGEAAAMLNNMRVYGTCVLTCMATVVFVGVKYVNKFALVFLGCVILSILAIYAGVIKSAFDPPNFPICLLGNRTLSRHGFDVCAKLAWEGNETVTTRLWGLFCSSRLLNATCDEYFTRNNVTEIQGIPGAASGLIKENLWSSYLTKGVIVERRGMPSVGLADGTPVDMDHPYVFSDMTSYFTLLVGIYFPSVTGIMAGSNRSGDLRDAQKSIPTGTILAIATTSAVYISSVVLFGACIEGVVLRDKFGEAVNGNLVVGTLAWPSPWVIVIGSFFSTCGAGLQSLTGAPRLLQAISRDGIVPFLQVFGHGKANGEPTWALLLTACICEIGILIASLDEVAPILSMFFLMCYMFVNLACAVQTLLRTPNWRPRFRYYHWTLSFLGMSLCLALMFICSWYYALVAMLIAGLIYKYIEYRGAEKEWGDGIRGLSLSAARYALLRLEEGPPHTKNWRPQLLVLVRVDQDQNVVHPQLLSLTSQLKAGKGLTIVGSVLEGTFLDNHPQAQRAEESIRRLMEAEKVKGFCQVVISSNLRDGVSHLIQSGGLGGLQHNTVLVGWPRNWRQKEDHQTWRNFIELVRETTAGHLALLVTKNVSMFPGNPERFSEGSIDVWWIVHDGGMLMLLPFLLRHHKVWRKCKMRIFTVAQMDDNSIQMKKDLTTFLYHLRITAEVEVVEMHESDISAYTYEKTLVMEQRSQILKQMHLTKNEREREIQSITDESRGSIRRKNPANPRLRLNVPEETACDNEEKPEEEVQLIHDQSAPSCPSSSPSPGEEPEGERETDPEVHLTWTKDKSVAEKNKGPSPVSSEGIKDFFSMKPEWENLNQSNVRRMHTAVRLNEVIVNKSRDAKLVLLNMPGPPRNRNGDENYMEFLEVLTEQLDRVMLVRGGGREVITIYS | binds |

These are yes or no findings as the source states them, for the method shown. In cells and extracts the contact can be indirect. Here binding means that the protein was enriched with, or labelled near, the bait; the list need not be complete. Sequences can lack the tags named with a protein.
